Data reported in the supplement of paper PMC10849652.
The other results are listed elsewhere or left out. Residues, ends and D or L forms follow the SMILES beside them. *: point of attachment. Cbz = O=C(OCc1ccccc1)*

Chains of the proteins cited; added tags and fusions are not shown. Lines headed by an entry give the natural chain unless they say otherwise; changes in a name come on top.
UniProt P00813: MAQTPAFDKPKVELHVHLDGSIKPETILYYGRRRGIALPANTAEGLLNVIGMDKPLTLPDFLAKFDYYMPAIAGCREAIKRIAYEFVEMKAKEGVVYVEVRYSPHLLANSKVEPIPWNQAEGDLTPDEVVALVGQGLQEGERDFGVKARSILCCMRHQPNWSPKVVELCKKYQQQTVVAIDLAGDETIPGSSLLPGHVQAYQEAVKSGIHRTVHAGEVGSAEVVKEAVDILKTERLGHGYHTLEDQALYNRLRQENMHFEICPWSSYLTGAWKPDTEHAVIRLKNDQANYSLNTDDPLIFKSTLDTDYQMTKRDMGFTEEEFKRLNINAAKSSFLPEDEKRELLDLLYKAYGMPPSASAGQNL
UniProt O00154: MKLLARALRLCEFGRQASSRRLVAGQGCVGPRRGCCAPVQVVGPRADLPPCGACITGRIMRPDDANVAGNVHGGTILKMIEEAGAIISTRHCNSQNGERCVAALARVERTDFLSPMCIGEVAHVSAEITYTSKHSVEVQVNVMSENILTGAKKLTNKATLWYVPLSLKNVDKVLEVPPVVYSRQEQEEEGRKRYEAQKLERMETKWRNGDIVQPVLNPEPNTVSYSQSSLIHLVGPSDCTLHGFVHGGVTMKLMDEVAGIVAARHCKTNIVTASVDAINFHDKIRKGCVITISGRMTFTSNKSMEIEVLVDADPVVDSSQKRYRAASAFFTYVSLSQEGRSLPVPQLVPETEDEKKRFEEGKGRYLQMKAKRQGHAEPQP
UniProt O14734: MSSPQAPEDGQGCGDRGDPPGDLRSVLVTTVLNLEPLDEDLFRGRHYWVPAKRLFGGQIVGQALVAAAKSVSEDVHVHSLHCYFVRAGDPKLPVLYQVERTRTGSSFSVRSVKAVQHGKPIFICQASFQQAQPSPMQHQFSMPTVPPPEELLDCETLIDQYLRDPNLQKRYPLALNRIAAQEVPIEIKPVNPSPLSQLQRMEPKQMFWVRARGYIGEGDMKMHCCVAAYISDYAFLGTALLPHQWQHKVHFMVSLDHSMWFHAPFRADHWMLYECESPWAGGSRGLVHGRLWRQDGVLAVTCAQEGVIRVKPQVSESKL
UniProt Q96IU4: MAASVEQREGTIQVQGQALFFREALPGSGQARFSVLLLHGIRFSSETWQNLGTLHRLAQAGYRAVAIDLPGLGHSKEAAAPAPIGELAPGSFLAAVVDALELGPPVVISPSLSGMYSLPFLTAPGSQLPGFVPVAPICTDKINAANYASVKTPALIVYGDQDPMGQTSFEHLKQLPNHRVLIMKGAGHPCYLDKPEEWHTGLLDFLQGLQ
UniProt Q13443: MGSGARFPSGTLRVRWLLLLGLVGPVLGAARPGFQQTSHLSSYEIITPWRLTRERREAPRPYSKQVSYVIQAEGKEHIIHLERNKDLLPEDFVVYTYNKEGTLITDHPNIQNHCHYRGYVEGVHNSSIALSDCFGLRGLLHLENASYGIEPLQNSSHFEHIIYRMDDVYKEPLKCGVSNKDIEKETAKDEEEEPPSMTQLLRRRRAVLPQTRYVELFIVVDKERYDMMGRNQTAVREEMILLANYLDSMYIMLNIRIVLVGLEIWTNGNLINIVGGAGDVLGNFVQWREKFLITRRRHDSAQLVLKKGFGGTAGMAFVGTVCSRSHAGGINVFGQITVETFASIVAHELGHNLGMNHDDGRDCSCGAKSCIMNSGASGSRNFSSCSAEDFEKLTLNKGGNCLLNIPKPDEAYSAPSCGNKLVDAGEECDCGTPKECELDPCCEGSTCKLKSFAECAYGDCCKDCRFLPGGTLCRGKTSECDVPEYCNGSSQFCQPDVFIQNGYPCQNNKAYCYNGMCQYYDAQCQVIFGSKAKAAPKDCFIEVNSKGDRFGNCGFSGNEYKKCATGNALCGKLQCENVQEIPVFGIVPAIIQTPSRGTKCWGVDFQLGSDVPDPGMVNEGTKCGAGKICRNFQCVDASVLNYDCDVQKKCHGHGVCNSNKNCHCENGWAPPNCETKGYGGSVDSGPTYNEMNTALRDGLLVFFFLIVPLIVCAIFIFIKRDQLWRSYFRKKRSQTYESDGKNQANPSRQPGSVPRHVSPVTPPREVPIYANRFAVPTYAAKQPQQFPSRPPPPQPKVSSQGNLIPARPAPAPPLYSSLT
UniProt Q9NPJ3: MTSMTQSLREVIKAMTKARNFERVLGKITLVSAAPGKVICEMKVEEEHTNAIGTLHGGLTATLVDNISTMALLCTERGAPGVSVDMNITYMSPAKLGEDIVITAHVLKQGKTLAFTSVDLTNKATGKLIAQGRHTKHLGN
UniProt O00763, whole entry, looked up: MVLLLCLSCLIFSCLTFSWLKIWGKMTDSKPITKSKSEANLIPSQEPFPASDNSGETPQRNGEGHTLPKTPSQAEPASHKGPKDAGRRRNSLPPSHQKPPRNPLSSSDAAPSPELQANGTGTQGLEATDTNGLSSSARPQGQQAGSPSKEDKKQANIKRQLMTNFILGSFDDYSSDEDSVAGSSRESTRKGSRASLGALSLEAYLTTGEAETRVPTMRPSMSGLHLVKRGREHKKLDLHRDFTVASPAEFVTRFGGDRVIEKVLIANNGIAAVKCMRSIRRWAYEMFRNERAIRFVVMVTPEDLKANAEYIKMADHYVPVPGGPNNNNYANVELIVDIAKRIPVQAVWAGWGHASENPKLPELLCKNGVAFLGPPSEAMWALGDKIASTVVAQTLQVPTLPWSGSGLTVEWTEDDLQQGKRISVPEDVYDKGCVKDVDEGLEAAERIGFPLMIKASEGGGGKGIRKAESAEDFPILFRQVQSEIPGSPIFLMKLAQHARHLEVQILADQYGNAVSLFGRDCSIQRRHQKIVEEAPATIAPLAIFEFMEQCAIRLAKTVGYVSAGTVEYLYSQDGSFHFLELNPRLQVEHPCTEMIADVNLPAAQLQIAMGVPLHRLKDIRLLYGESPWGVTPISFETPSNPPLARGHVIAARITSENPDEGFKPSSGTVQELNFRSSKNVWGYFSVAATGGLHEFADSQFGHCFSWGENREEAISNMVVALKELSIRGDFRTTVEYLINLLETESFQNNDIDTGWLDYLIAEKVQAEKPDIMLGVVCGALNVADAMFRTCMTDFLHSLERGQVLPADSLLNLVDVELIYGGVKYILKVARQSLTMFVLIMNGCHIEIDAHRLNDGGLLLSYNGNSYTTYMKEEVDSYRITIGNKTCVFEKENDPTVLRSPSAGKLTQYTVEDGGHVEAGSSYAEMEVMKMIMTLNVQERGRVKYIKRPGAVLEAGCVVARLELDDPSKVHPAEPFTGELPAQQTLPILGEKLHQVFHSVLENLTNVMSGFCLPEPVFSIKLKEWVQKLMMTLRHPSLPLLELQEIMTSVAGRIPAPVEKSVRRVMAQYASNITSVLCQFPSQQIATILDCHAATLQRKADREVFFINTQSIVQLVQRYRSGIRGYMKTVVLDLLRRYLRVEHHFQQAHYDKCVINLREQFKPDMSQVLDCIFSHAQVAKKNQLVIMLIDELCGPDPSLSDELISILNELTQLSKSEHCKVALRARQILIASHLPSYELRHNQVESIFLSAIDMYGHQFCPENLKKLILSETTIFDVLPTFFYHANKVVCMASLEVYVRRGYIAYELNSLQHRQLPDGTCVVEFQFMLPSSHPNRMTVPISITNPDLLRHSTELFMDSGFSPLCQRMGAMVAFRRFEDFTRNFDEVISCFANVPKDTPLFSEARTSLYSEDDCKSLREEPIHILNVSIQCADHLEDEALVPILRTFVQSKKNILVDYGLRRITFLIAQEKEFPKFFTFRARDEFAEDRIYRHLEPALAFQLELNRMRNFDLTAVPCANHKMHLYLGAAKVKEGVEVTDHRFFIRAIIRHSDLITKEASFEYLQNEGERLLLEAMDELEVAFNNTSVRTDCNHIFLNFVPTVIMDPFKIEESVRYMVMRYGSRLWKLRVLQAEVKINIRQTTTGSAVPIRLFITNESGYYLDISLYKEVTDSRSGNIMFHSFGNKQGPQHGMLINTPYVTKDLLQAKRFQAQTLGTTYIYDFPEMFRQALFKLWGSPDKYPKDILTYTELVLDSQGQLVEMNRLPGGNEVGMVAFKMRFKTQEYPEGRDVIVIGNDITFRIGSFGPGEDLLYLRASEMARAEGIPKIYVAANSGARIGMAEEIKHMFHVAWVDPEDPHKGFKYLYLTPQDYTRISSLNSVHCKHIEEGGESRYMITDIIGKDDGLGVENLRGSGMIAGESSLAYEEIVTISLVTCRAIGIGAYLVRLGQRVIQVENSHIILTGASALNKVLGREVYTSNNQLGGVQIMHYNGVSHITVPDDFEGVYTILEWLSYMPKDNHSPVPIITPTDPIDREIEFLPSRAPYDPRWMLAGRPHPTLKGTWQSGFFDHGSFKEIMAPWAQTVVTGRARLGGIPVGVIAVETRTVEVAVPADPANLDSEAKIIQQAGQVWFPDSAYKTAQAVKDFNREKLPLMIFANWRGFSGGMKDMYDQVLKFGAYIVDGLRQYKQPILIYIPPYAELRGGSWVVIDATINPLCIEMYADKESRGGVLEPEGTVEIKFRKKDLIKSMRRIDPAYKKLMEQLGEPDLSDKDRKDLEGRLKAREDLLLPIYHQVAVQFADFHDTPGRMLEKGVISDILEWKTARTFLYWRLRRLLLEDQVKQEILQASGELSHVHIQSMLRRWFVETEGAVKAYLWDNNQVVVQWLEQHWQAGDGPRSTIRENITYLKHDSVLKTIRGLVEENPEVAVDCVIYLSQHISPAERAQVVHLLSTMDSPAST
UniProt Q9Y305: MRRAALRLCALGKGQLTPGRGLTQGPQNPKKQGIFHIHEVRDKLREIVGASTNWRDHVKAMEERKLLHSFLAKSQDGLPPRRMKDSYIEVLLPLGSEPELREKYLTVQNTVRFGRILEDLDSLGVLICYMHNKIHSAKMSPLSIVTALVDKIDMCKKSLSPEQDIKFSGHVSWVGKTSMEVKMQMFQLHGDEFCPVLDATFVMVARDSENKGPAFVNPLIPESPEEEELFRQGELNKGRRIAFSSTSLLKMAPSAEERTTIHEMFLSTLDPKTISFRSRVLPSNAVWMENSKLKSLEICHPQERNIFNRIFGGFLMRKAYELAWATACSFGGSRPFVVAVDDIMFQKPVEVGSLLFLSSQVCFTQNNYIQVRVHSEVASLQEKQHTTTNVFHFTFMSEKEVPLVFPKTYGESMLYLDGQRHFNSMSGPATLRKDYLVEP

How the values were obtained:
Experiment in all cases: log2 fold change, soluble protein after heating vs DMSO (PISA); higher = thermal stabilisation; K562 cells, 10 uM, 30 min; active = over 0.2 and 3.5 SD of the protein, either way, in both replicates (recomputed)
erlotinib = compound: C#Cc1cccc(Nc2ncnc3cc(OCCOC)c(OCCOC)cc23)c1 [erlotinib]
How it was run: (§1)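 K562 cells (2×10^6 cells/mL) were treated with 10 μM compound for 30 min, and aliquots were heated for 3 min over 48°C-58°C. Pooled aliquots were extracted in PBS with 0.5% NP-40 at 4°C, and the supernatant after 21,000xg for 90 min was measured by TMTpro 16plex LC-MS/MS with channel sums equalised. Reported thermal stability, relative to control samples and from duplicates, is a log2 fold change.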

[1] = compound: C/C(=N\NC(=O)C1=CC(=CC=C1)S(=O)(=O)N2CCOCC2)/C3=C(C=CC(=C3)Cl)O
How it was run: as §1

[2] = compound: C1=CC(=C(C=C1Cl)C2=NC3=NC=CN=C3C(=N2)NC4=CC=NC=C4)F
How it was run: as §1

[3] = compound: C1=CC(=CC=C1C2=NC3=C(N2)C=C(C=C3)C(=O)N)OC4=CC=C(C=C4)Cl
How it was run: as §1

[4] = compound: C1=CC2=C(C=CC(=C2)/C=C\3/C(=O)NC(=NCC4=CC=CS4)S3)N=C1
How it was run: as §1

[5] = compound: C1=CC2=NC=CN=C2C=C1/C=C/3\C(=O)NC(=O)S3
How it was run: as §1

[6] = compound: C1=CC=C(C=C1)C2=NC(=C(N2)C3=CC=NC=C3)C4=CC(=C(C=C4)Cl)O
How it was run: as §1

[7] = compound: C1=CC=C2C(=C1)C3=NNC4=CC=CC(=C43)C2=O
How it was run: as §1

[8] = compound: C1CCN(C1)C(=O)NC2=CC=CC(=C2)NC3=NC=C(C(=N3)NCCC4=CN=CN4)Br
How it was run: as §1

[9] = compound: C1CN(CCC1(CC2=CC=C(C=C2)Cl)N)C3=NC=NC4=C3C=CN4
How it was run: as §1

IRAK-1-4 Inhibitor I = compound: C1COCCN1CCN2C3=CC=CC=C3N=C2NC(=O)C4=CC(=CC=C4)[N+](=O)[O-] [IRAK-1-4 Inhibitor I]
How it was run: as §1

ibrutinib = compound: C=CC(=O)N1CCC[C@@H](n2nc(-c3ccc(Oc4ccccc4)cc3)c3c(N)ncnc32)C1 [ibrutinib]
How it was run: as §1

[10] = compound: CC(=O)c1cnc2ccc(-c3cc(Cl)c(O)c(Cl)c3)nc2c1N[C@H]1CC[C@H](CN(C)C)CC1
How it was run: as §1

ralimetinib = compound: CC(C)(C)Cn1c(N)nc2ccc(-c3[nH]c(C(C)(C)C)nc3-c3ccc(F)cc3)nc21 [ralimetinib]
How it was run: as §1

[11] = compound: CC(C)(O)CC(=O)NCCn1ccc2ncnc(Nc3ccc(Oc4cccc(C(F)(F)F)c4)c(Cl)c3)c21
How it was run: as §1

[12] = compound: CC(C)C1=C2N=C(C=C(N2N=C1)NCC3=CC=CC=C3)NCCCCCCN
How it was run: as §1

[13] = compound: CC(C)C[C@@H](C=O)NC(=O)[C@H](CC(C)C)NC(=O)[C@H](CC(C)C)NC(=O)OCc1ccccc1
How it was run: as §1

pinometostat = compound: CC(C)N(C[C@H]1O[C@@H](n2cnc3c(N)ncnc32)[C@H](O)[C@@H]1O)[C@H]1C[C@@H](CCc2nc3cc(C(C)(C)C)ccc3[nH]2)C1 [pinometostat]
How it was run: as §1

[14] = compound: CC1=C(C(CC(=O)N1)C2=CC=C(C=C2)C(F)(F)F)C(=O)NC3=C(C=C4C(=C3)C=NN4)F
How it was run: as §1

[15] = compound: CC1=C(C2=C(C=C1)C(=O)C3=CC=CC=C3N2CCCN)C
How it was run: as §1

Target | log2 fold change (erlotinib) | log2 fold change [1] | log2 fold change [2] | log2 fold change [3] | log2 fold change [4] | log2 fold change [5] | log2 fold change [6] | log2 fold change [7] | log2 fold change [8] | log2 fold change [9] | log2 fold change (IRAK-1-4 Inhibitor I) | log2 fold change (ibrutinib) | log2 fold change [10] | log2 fold change (ralimetinib) | log2 fold change [11] | log2 fold change [12] | log2 fold change [13] | log2 fold change (pinometostat) | log2 fold change [14] | log2 fold change [15]
ADA (UniProt P00813) | inactive: 0.016 | inactive: -0.035 | inactive: 0.05 | inactive: 0.032 | inactive: 0.056 | inactive: 0.051 | inactive: -0.065 | inactive: -0.024 | inactive: 0.07 | inactive: 0.033 | inactive: 0.032 | inactive: 0.025 | inactive: 0.024 | inactive: 0.02 | inactive: -0.019 | inactive: 0.061 | inactive: 0.033 | inactive: -0.041 | inactive: 0.022 | inactive: 0.034
ACOT7 isoform 7 (UniProt O00154) | inactive: 0.001 | inactive: 0.038 | inactive: 0.065 | inactive: 0.004 | inactive: -0.001 | inactive: 0.028 | inactive: 0.011 | inactive: -0.015 | inactive: -0.03 | inactive: 0.077 | inactive: 0.001 | inactive: 0.018 | inactive: 0.011 | inactive: -0.041 | inactive: -0.012 | inactive: 0.071 | inactive: -0.038 | inactive: -0.009 | inactive: 0.045 | inactive: 0.015
ACOT8 (UniProt O14734) | inactive: 0.033 | inactive: 0.006 | inactive: 0.075 | inactive: 0.026 | inactive: 0.061 | inactive: 0.033 | inactive: -0.014 | inactive: -0.031 | inactive: -0.001 | inactive: 0.08 | inactive: -0.004 | inactive: 0.039 | inactive: -0.011 | inactive: -0.05 | inactive: -0.104 | inactive: 0.023 | inactive: 0.005 | inactive: -0.05 | inactive: -0.017 | inactive: 0.007
ABHD14B (UniProt Q96IU4) | inactive: -0.036 | inactive: 0.094 | inactive: 0.043 | inactive: -0.007 | inactive: 0.039 | inactive: 0.007 | inactive: 0.077 | inactive: -0.006 | inactive: -0.025 | inactive: 0.06 | inactive: 0.027 | inactive: 0.012 | inactive: 0.016 | inactive: -0.084 | inactive: -0.05 | inactive: -0.002 | inactive: -0.102 | inactive: -0.041 | inactive: -0.015 | inactive: 0.066
ADAM9 (UniProt Q13443) | inactive: 0.015 | inactive: -0.036 | inactive: 0.035 | inactive: -0.012 | inactive: 0.012 | inactive: 0.062 | inactive: -0.025 | inactive: -0.019 | inactive: -0.008 | inactive: 0.066 | inactive: 0.03 | inactive: 0.031 | inactive: -0.062 | inactive: -0.055 | inactive: -0.005 | inactive: 0.013 | inactive: -0.001 | inactive: -0.034 | inactive: -0.017 | inactive: 0.049
ACOT13 (UniProt Q9NPJ3) | inactive: -0.017 | inactive: 0.004 | inactive: -0.013 | inactive: 0.009 | inactive: -0.007 | inactive: 0.002 | inactive: 0.086 | inactive: 0.026 | inactive: -0.01 | inactive: 0.067 | inactive: 0.075 | inactive: 0.035 | inactive: 0.003 | inactive: -0.007 | inactive: 0.045 | inactive: 0.051 | inactive: -0.007 | inactive: -0.098 | inactive: -0.059 | inactive: 0
ACACB (UniProt O00763) | inactive: 0.048 | inactive: -0.094 | inactive: -0.212 | inactive: -0.108 | inactive: 0.07 | inactive: -0.123 | inactive: 0.132 | inactive: -0.028 | inactive: -0.059 | inactive: -0.143 | inactive: -0.23 | inactive: 0.02 | inactive: 0.108 | inactive: 0.216 | inactive: 0 | active: -0.515 | inactive: 0.066 | inactive: 0.315 |  | inactive: 0.027
ACOT9 isoform 4 (UniProt Q9Y305) | inactive: -0.07 | inactive: -0.033 | inactive: -0.078 | inactive: 0.15 | inactive: 0.056 | inactive: -0.084 | inactive: 0.015 | inactive: 0.083 | inactive: -0.022 | inactive: 0.013 | inactive: -0.085 | inactive: 0.115 | inactive: -0.057 | inactive: 0.04 | inactive: 0.05 | inactive: 0.198 | inactive: 0.074 | inactive: 0.094 | inactive: -0.068 | inactive: 0.088
